According to paper PMC9581156:
Results are given in words; binding and its absence hold for the method and conditions named. In cells and extracts the contact can be indirect. Binding can be weak; no strength is given. Where a sequence is shown, tags or fusion partners need not be part of it.

Columns and labels:
[1] = molecular target: T1, FLAG-tagged vacuolar protein sorting 25 (human) (UniProt Q9BRG1); test: co-IP; HEK293T co-transfected with FLAG-VPS25 and GFP-3A for 48 h; RIPA lysate; primary antibody (anti-FLAG or anti-GFP) overnight with Protein G Agarose; five washes; Western blot
T1 sequence: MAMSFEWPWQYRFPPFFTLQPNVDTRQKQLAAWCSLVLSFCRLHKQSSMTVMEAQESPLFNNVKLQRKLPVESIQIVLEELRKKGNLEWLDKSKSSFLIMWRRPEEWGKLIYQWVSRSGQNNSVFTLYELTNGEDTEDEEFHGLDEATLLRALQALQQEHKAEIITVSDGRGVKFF

[2] = molecular target: GFP-tagged EV71 3A protein (expressed in HEK293T cells) (human enterovirus 71 (EV71)); test: as above

Molecule: GFP-tagged EV71 3A protein (expressed in HEK293T cells) (human enterovirus 71 (EV71))
- binding [1]: binds

B1: FLAG-tagged vacuolar protein sorting 25 (protein, UniProt Q9BRG1 1-176)
chain: MAMSFEWPWQYRFPPFFTLQPNVDTRQKQLAAWCSLVLSFCRLHKQSSMTVMEAQESPLFNNVKLQRKLPVESIQIVLEELRKKGNLEWLDKSKSSFLIMWRRPEEWGKLIYQWVSRSGQNNSVFTLYELTNGEDTEDEEFHGLDEATLLRALQALQQEHKAEIITVSDGRGVKFF
- binding [2]: binds
